Consider 1 compound from PMC12105006, “AI-Driven De Novo Design and Development of Nontoxic DYRK1A Inhibitors” (Journal of Medicinal Chemistry, 2025).

Sequences of proteins named here, by UniProt entry; tags and fusion partners are left off.
UniProt Q9Y463, whole entry: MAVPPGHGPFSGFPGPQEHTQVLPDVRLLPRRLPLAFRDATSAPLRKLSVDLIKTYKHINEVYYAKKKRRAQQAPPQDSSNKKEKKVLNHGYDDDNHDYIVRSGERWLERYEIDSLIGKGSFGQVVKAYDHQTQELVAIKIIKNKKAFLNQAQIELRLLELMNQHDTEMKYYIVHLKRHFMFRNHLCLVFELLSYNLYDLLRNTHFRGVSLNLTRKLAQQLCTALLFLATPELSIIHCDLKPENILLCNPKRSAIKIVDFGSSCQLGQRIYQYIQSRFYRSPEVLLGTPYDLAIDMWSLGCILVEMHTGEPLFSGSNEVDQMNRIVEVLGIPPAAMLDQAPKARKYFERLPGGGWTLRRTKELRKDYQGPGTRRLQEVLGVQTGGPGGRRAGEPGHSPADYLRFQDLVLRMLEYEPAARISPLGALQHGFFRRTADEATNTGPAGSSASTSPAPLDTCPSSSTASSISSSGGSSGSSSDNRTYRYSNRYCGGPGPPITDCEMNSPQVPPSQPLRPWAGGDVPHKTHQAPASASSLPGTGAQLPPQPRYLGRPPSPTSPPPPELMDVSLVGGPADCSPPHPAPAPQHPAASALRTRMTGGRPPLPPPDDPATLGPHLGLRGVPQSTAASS

This test concerns the target DYRK1B (Homo sapiens, UniProt Q9Y463). In words: ADP-Glo DYRK1B kinase enzyme inhibition assay. The conditions noted are these: read-out: IC50 (nM) DYRK1B; ATP (10 μmol/well) and DYRKtidE (4 μmol/well) as substrate; triplicate. (ADP-Glo first removes unused ATP, then detects ADP through luciferase.)

Turning to `COc1ccc2c(c1)[nH]c1c(C)nccc12` [harmine, reference compound], the IC50 was 147 ± 54 nM.

As a reminder, the IC50 is the point on the concentration scale where inhibition reaches its midpoint.
